Results deposited as PubChem BioAssay AID602196 (INSERM, 2012).
Test: 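Modifiers of cisplatin sensitivity in A549 cells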. Cells: human A549 lung cancer cells. Reagents: siRNA pair against human genes. Time to read-out: 48 h transfection before cisplatin; time from cisplatin to read-out not stated. Challenge: cisplatin at a dose killing half of control-siRNA cells; exact dose and duration not given. Detection: 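Shift in cisplatin death relative to control siRNA, from -50 (all cells die) to +50 (no cells die); siRNAs harmful on their own scored 0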. Scale: two-siRNA summed score (-2 to +2): higher = both siRNAs protect from cisplatin killing; -2 means both sensitise. Hit rule: 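siRNAs harmful alone (LDH or WST-1) get 0; others get +1 for less and -1 for more cisplatin killing; genes are active when the two siRNAs give the same sign, summing to ±2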. Calls: active = both siRNAs shift cisplatin killing the same way; inactive = no consistent shift, or siRNA harmful alone.
This is one part, drawn at random, of about 23,000 reagents. In the full data, 455 (2%) are marked active. 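Active includes both protection and sensitisation; some change values fall well beyond the stated -50 to +50 range.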 Further read-outs or replicates are left out here. Not given: the amount of reagent.

no.	gene	two-siRNA summed score (-2 to +2)	activity call
1	PARVG	0	inactive
2	OR4S2	1	inactive
3	FBXO15	0	inactive
4	LOC401495	0	inactive
5	RPP38-DT	0	inactive
6	LOC442444	1	inactive
7	LINC00698	0	inactive
8	LOC442040	0	inactive
9	AAGAB	0	inactive
10	RAB2A	1	inactive
11	SAFB	0	inactive
12	LOC132391	1	inactive
13	FTHL17	0	inactive
14	LOC441809	0	inactive
15	SIRAL2	0	inactive
16	PCDHGC5	0	inactive
17	RAI1	0	inactive
18	LOC390121	1	inactive
19	CEP68	1	inactive
20	LOC391241	0	inactive
21	VPS37C	0	inactive
22	ATP1A2	0	inactive
23	LOC440872	0	inactive
24	HMGCL	0	inactive
25	EIF4A1	0	inactive
26	CCL15	1	inactive
27	NOP2	0	inactive
28	EPHA6	1	inactive
29	LOC442045	0	inactive
30	PXMP4	0	inactive
31	MICAL3	0	inactive
32	LIN9	0	inactive
33	TSG101	0	inactive
34	TREML2	0	inactive
35	MYH7	0	inactive
36	ADPGK	0	inactive
37	FCER1A	-1	inactive
38	LOC388237	0	inactive
39	AGPAT4-IT1	0	inactive
40	FN3K	1	inactive
41	ZKSCAN3	0	inactive
42	FABP4	0	inactive
43	LOC441329	0	inactive
44	TTLL3	0	inactive
45	LOC284184	1	inactive
46	LOC440992	0	inactive
47	B4GALNT1	1	inactive
48	LOC389419	0	inactive
49	ZNF512	0	inactive
50	RNF217	1	inactive
51	TMEM216	0	inactive
52	LOC441494	1	inactive
53	ZNF124	0	inactive
54	DRC4	1	inactive
55	MGC26143	0	inactive
56	POC5	0	inactive
57	OSR2	0	inactive

Taken from above.
Value for LOC132391 in “two-siRNA summed score (-2 to +2)”: 1
For “two-siRNA summed score (-2 to +2)”, EIF4A1 reads 0
Under “two-siRNA summed score (-2 to +2)”, EPHA6 has 1
Entry for AAGAB under “two-siRNA summed score (-2 to +2)”: 0
B4GALNT1, activity call → inactive
